Laboratory results: PubChem BioAssay AID624291 (National Center for Advancing Translational Sciences (NCATS), 2012)
The whole screen tested about 350,000 compounds, of which about 220 (0.063%) were called active. This list was built around the results that the source calls inconclusive (neither active nor inactive); the mix of calls is not that of the screen. Calls come from the whole dose curve; as a rule, active = well fitted activation curve with a large enough effect; inconclusive = small, poorly fitted or top-dose-only effect; inactive = no such curve, though single readings can be large or run the other way. Where the call is inconclusive, the potency comes from a doubtful curve fit.

experiment: qHTS for Activators of Integrin-Mediated Alleviation for Muscular Dystrophy; conditions: alpha7betagal myoblasts, beta-gal FDG fluorescence, 48 h; activation: at 38.3 µM (top of the series); note: nearly all actives have a fitted effect of over 60% in size;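 for activation: 100% = response of the positive control SU9516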
Outline: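 alpha7betagal+/- myoblasts (passage 13, 250/well) treated 48 h at 37C with compounds at 1:260 dilution of DMSO stock. Lysed, then beta-galactosidase activity read as FDG fluorescence (ex 480/em 540) after 30 min, with pre-read for autofluorescence.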
Potency is the fitted concentration of half-maximal effect.

| SMILES | activation | Potency |
| --- | --- | --- |
| O=C(NC(=S)Nc1ccc(CN2CCCCC2)cc1)c1cccc(OCc2ccccc2)c1 | inactive: -72% |  |
| CC(C)CN1CCC(CN(C)Cc2nc(-c3cnccn3)no2)CC1 |  | inconclusive: 3.16 µM [activator, partial curve, poor fit] |
| Cc1cc(C)n(-c2nnc(NC(C)(C)C)nn2)n1 | inactive: 13.6% |  |
| COc1ccccc1CNC(=O)CN1C(=O)c2ccc([N+](=O)[O-])cc2C1=O |  | inconclusive: 1.26 µM [activator, partial curve, poor fit] |
| CC1CCCN(c2nc3ccccc3nc2C(C#N)S(=O)(=O)c2ccccc2)C1 (stereo not drawn) |  | inconclusive: 5.01 µM [activator, single point] |
| O=C(c1ccncc1)c1ccc(NS(=O)(=O)c2ccc(Br)s2)cc1 |  | inconclusive: 15.8 µM [activator, single point] |
| CC(=O)Nc1ccc(CN2CCCC(CCC(=O)NCc3ccccc3F)C2)cc1 (stereo not drawn) |  | inconclusive: 5.01 µM [activator, single point] |
| Cc1cccc(C(=O)NC2CCN(CC(=O)NCc3cccs3)CC2)c1 |  | inconclusive: 17.8 µM [activator, single point] |
| Cc1ccc(C(=O)NC2CCCCCCC2)cc1S(=O)(=O)N1CCOCC1 | inactive: -15% |  |
| COc1ccccc1Nc1nc2ccc(C)cc2cc1C#N |  | inconclusive: 1.41 µM [activator, partial curve, poor fit] |
| O=C(O)Cc1sc(Nc2ccccc2)nc1-c1cccs1 | inactive: 13.1% |  |
| COC(=O)CSc1nc(N2CCOCC2)c2c(c1C#N)CC(C)(C)N(C)C2 | inactive: -6% |  |
| CN1CCN(C(=O)CN(c2cccc(Cl)c2)S(=O)(=O)c2ccccc2)CC1 | inactive: -21.9% |  |
| Cn1c(NNC(=O)c2c(F)cccc2F)cc(=O)n(C)c1=O |  | inconclusive: 3.16 µM [activator, single point] |
| Cc1csc(C(=O)NN)c1N(C)C |  | inconclusive: 28.2 µM [activator, single point] |
| CN(Cc1ccccc1F)C(=O)c1ccccc1Sc1ccccc1C#N | inactive: -26.1% |  |
| Cc1ccccc1N1CCN(Cc2nc(Cc3ccccc3)no2)CC1 | inactive: 0.958% |  |
| CN(C)c1ccc(NC(=S)c2ccc3ccccc3n2)cc1 | inactive: -2.31% |  |
| OCc1cn(-c2ccccc2)nc1-c1ccc2c(c1)OCCO2 |  | inconclusive: 14.1 µM [activator, single point] |

In a second layout: entries from further up
O=C(O)Cc1sc(Nc2ccccc2)nc1-c1cccs1
  activation: inactive: 13.1%
Cc1ccccc1N1CCN(Cc2nc(Cc3ccccc3)no2)CC1
  activation: inactive: 0.958%

(next part)

| SMILES | activation | Potency |
| --- | --- | --- |
| O=C(NCC(c1ccc(F)cc1)N1CCOCC1)c1ccc(-c2ccccc2)cc1 (stereo not drawn) |  | inconclusive: 22.4 µM [activator, single point] |
| Cc1ccc(NC(=S)NCc2ccc(Cl)cc2)c(C)c1 |  | inconclusive: 10 µM [activator, partial curve, poor fit] |
| O=C(NNC(=O)c1c(F)cccc1F)c1ccccc1-n1cccc1 |  | inconclusive: 3.16 µM [activator, single point] |
| CC(C)(C)NC(=O)CN1CCCN(C(=O)c2cccc(S(=O)(=O)N3CCc4ccccc43)c2)CC1 |  | inconclusive: 10 µM [activator, single point] |
| CC1(C)CC(=O)C(CC(=O)Nc2cc(C(F)(F)F)ccc2Cl)C(=O)C1 |  | inconclusive: 28.2 µM [activator, single point] |
| COc1ccc(Nc2cc(C(=O)NCCCN3CCOCC3)c3ccccc3n2)cc1OC |  | inconclusive: 2.82 µM [activator, single point] |
| O=C(O)C1C2C=CC(C2)C1C(=O)NCCCN1CCCC1=O (stereo not drawn) |  | inconclusive: 5.01 µM [activator, single point] |
| Cc1c(C(=O)N2CCCCC2)c(S(=O)(=O)N2CCN(c3ccc(F)cc3)CC2)c(C)n1C |  | inconclusive: 28.2 µM [activator, single point] |
| CS(=O)(=O)Nc1ccc(Cc2ccc(NS(C)(=O)=O)cc2)cc1 | inactive: -4.08% |  |
| C=C1C(=O)C23CCC4C(C)(C(=O)OC)CCCC4(C)C2CCC1(O)C3 (stereo not drawn) | inactive: -53.2% |  |
| CCN(CC)C(=S)NC(=O)c1ccc(F)cc1 | inactive: -4.21% |  |
| CC1CCCCN1Cc1c(O)ccc2c(=O)c(-c3ccc(Cl)cc3)coc12 (stereo not drawn) | inactive: -35.7% |  |
| CC(C)(Oc1ccc(Cl)cc1)C(=O)N1CCN(C(=O)c2ccco2)CC1 |  | inconclusive: 20 µM [activator, single point] |
| COc1ccccc1CN(C)C(=O)c1cc(-c2cccs2)nc2ccccc12 | inactive: -8.23% |  |
| CC(=O)n1cc([C@H]2C=C(C(=O)N3CCN(Cc4ccccc4)CC3)O[C@@H](OCCCCO)C2)c2ccccc21 | inactive: 0.332% |  |
| O=C(NNC(=O)c1cc2ccccc2cc1O)Nc1ccc(Br)cc1 |  | inconclusive: 28.2 µM [activator, single point] |
| NC(=S)n1[nH]c(-c2ccc([N+](=O)[O-])cc2)c(N=Nc2ccc(O)cc2)c1=O | inactive: 6.24% |  |
| Cc1ccc2nc(COc3ccc(Cl)cc3)cc(=O)n2c1 |  | inconclusive: 11.2 µM [activator, single point] |
| O=C(O)C1C2CCC(O2)C1C(=O)Nc1ccccc1Br (stereo not drawn) | inactive: 3.13% |  |
